{"source": "PubChem BioAssay AID720505 | Drosophila RNAi Screening Center – 2013", "aim": "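Knock-downs that reduce calcium influx once internal stores are emptied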 (primary screen)", "cell system": "Drosophila S2R+ cells", "knock-down reagent": "long dsRNA against Drosophila genes", "conditions": "thapsigargin (2 µM) in calcium-free buffer to empty internal stores, then 2 mM calcium added back", "detection": "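Stores emptied by 2 µM thapsigargin without calcium, then 2 mM calcium re-added; fluo-4 fluorescence followed by FLIPR in 384-well plates, per-well averaged endpoint, raw; two screen passes, some wells retested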", "scale": "calcium signal and retest calcium signal: higher = more calcium entry after store depletion", "hit rule": "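About 1500 genes called as lowering calcium entry, by varying amounts, judged against per-plate control wells with STIM1 as positive and Rho1 as negative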", "meaning of the calls": "active = called as lowering calcium entry; inactive = not called", "note": "In all, the deposit lists about 20,000 reagents; this is a random part of those that have a named target and a result. In the full data, about 2,100 (10%) were called active. 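Raw plate signals without normalisation; calls rest on control-based scores that were not deposited; replicate 2 separates called from uncalled poorly.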 Reagents against one gene are numbered here. The record does not give: the amount of reagent, the time to read-out."}
{"predicted target": "dmrt11E (doublesex-Mab related 11E)", "reagent no.": 1, "calcium signal, replicate 1": 134, "calcium signal, replicate 2": 118, "retest calcium signal, replicate 1": 92.1, "retest calcium signal, replicate 2": 91.2, "activity call": "inactive"}
{"predicted target": "Tapdelta (Translocon-associated protein delta)", "reagent no.": 1, "calcium signal, replicate 1": 130, "calcium signal, replicate 2": 134, "activity call": "inactive"}
{"predicted target": "DCP1 (Decapping protein 1)", "reagent no.": 1, "calcium signal, replicate 1": 138, "calcium signal, replicate 2": 135, "activity call": "inactive"}
{"predicted target": "l(1)sc (lethal of scute)", "reagent no.": 1, "calcium signal, replicate 1": 62.2, "calcium signal, replicate 2": 108, "activity call": "active"}
{"predicted target": "CG10280", "reagent no.": 1, "calcium signal, replicate 1": 70.3, "calcium signal, replicate 2": 174, "activity call": "active"}
{"predicted target": "CG34223", "reagent no.": 1, "calcium signal, replicate 1": 81.7, "calcium signal, replicate 2": 115, "activity call": "inactive"}
{"predicted target": "CG2794", "reagent no.": 1, "calcium signal, replicate 1": 108, "calcium signal, replicate 2": 139, "activity call": "inactive"}
{"predicted target": "CG2260", "reagent no.": 1, "calcium signal, replicate 1": 86.7, "calcium signal, replicate 2": 82.3, "activity call": "inactive"}
{"predicted target": "danr (distal antenna-related)", "reagent no.": 1, "calcium signal, replicate 1": 234, "calcium signal, replicate 2": 170, "activity call": "inactive"}
{"predicted target": "TwdlX (TweedleX)", "reagent no.": 1, "calcium signal, replicate 1": 88.3, "calcium signal, replicate 2": 123, "activity call": "inactive"}
{"predicted target": "CG6650", "reagent no.": 1, "calcium signal, replicate 1": 74, "calcium signal, replicate 2": 97.3, "activity call": "inactive"}
{"predicted target": "pon (partner of numb)", "reagent no.": 1, "calcium signal, replicate 1": 220, "calcium signal, replicate 2": 110, "activity call": "inactive"}
{"predicted target": "O-fut1 (O-fucosyltransferase 1)", "reagent no.": 1, "calcium signal, replicate 1": 181, "calcium signal, replicate 2": 183, "activity call": "inactive"}
{"predicted target": "Polr2A (RNA polymerase II subunit A)", "reagent no.": 1, "calcium signal, replicate 1": 77, "calcium signal, replicate 2": 35.2, "activity call": "active"}
{"predicted target": "Rrp40 (Ribosomal RNA processing 40)", "reagent no.": 1, "calcium signal, replicate 1": 66, "calcium signal, replicate 2": 142, "activity call": "active"}
{"predicted target": "to (takeout)", "reagent no.": 1, "calcium signal, replicate 1": 223, "calcium signal, replicate 2": 130, "activity call": "inactive"}
{"predicted target": "CG43190", "reagent no.": 1, "calcium signal, replicate 1": 72.1, "calcium signal, replicate 2": 111, "activity call": "inactive"}
{"predicted target": "CG13999", "reagent no.": 1, "calcium signal, replicate 1": 217, "calcium signal, replicate 2": 120, "activity call": "inactive"}
{"predicted target": "udd (under-developed)", "reagent no.": 1, "calcium signal, replicate 1": 128, "calcium signal, replicate 2": 112, "activity call": "inactive"}
{"predicted target": "Or85b (Odorant receptor 85b)", "reagent no.": 1, "calcium signal, replicate 1": 105, "calcium signal, replicate 2": 125, "activity call": "inactive"}
{"predicted target": "gb (genderblind)", "reagent no.": 1, "calcium signal, replicate 1": 117, "calcium signal, replicate 2": 126, "activity call": "inactive"}
{"predicted target": "amon (amontillado)", "reagent no.": 1, "activity call": "inactive"}
{"predicted target": "amon (amontillado)", "reagent no.": 2, "calcium signal, replicate 1": 98.2, "calcium signal, replicate 2": 81.2, "retest calcium signal, replicate 1": 6404, "retest calcium signal, replicate 2": 138, "activity call": "inactive"}
{"predicted target": "CG4849", "reagent no.": 1, "calcium signal, replicate 1": 97.9, "calcium signal, replicate 2": 91.4, "activity call": "inactive"}
{"predicted target": "CG34038", "reagent no.": 1, "calcium signal, replicate 1": 119, "calcium signal, replicate 2": 81.9, "activity call": "inactive"}
{"predicted target": "sba (six-banded)", "reagent no.": 1, "calcium signal, replicate 1": 131, "calcium signal, replicate 2": 142, "retest calcium signal, replicate 1": 6390, "retest calcium signal, replicate 2": 161, "activity call": "inactive"}
{"predicted target": "beta-Man (beta-Mannosidase)", "reagent no.": 1, "calcium signal, replicate 1": 115, "calcium signal, replicate 2": 96.3, "activity call": "inactive"}
{"predicted target": "beta-Man (beta-Mannosidase)", "reagent no.": 2, "calcium signal, replicate 1": 121, "calcium signal, replicate 2": 129, "activity call": "inactive"}

Copied from the list.
Polr2A (RNA polymerase II subunit A), calcium signal, replicate 2 = 35.2
Under “calcium signal, replicate 1”, CG4849 shows 97.9
